Results are given in words; binding and its absence hold for the method and conditions named. For some of these results: Binding seen in cells or lysates may run through a third protein. Some binding calls cover weakened binding; strength is not graded here. For some of these results: Where a sequence is shown, tags or fusion partners need not be part of it.
Key:
[1] = molecular target: T1, Rad9-9MYC (S. cerevisiae) (UniProt P14737); assay: co-IP; anti-MYC IP of Rad9-9MYC from extract of nocodazole-arrested cells expressing Rad9-9MYC and Chk1-3FLAG, 20 ug/ml bleocin for 45 min; IgG mock control; western blot
T1 sequence: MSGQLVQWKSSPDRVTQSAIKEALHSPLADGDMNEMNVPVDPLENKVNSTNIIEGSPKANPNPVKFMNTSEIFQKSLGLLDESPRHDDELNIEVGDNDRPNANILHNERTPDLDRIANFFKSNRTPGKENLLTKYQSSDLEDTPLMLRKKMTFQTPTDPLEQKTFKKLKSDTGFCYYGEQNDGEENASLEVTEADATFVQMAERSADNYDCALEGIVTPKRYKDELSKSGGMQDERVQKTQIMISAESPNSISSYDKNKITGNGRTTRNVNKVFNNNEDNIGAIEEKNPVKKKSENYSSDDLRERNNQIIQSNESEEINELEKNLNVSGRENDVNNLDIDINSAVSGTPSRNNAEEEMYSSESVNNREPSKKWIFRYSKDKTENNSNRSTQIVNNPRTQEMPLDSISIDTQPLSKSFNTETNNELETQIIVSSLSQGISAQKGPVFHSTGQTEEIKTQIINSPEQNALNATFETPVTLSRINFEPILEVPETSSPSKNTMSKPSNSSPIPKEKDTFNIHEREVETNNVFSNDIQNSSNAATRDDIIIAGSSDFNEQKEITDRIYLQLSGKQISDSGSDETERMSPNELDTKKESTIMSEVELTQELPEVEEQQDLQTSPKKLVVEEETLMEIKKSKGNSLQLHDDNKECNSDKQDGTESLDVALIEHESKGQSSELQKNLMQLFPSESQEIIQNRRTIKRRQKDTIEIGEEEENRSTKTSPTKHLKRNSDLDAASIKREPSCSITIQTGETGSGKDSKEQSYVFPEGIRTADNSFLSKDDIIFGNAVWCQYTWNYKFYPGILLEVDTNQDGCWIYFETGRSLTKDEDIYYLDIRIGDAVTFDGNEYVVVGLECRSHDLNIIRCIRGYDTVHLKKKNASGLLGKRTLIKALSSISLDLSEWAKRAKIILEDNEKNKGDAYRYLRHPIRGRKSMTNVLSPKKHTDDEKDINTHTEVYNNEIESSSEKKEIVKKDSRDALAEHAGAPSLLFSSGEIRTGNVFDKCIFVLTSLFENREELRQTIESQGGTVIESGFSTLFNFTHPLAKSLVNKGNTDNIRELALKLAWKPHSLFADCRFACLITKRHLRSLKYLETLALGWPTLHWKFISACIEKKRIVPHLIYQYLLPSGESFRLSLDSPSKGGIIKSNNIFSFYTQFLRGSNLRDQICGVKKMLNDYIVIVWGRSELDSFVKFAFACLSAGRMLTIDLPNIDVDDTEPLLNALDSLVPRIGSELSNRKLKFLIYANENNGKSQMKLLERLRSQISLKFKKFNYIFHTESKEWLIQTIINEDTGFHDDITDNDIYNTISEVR

The chains behind the UniProt entries cited, without tags or fusion partners.
UniProt P22216: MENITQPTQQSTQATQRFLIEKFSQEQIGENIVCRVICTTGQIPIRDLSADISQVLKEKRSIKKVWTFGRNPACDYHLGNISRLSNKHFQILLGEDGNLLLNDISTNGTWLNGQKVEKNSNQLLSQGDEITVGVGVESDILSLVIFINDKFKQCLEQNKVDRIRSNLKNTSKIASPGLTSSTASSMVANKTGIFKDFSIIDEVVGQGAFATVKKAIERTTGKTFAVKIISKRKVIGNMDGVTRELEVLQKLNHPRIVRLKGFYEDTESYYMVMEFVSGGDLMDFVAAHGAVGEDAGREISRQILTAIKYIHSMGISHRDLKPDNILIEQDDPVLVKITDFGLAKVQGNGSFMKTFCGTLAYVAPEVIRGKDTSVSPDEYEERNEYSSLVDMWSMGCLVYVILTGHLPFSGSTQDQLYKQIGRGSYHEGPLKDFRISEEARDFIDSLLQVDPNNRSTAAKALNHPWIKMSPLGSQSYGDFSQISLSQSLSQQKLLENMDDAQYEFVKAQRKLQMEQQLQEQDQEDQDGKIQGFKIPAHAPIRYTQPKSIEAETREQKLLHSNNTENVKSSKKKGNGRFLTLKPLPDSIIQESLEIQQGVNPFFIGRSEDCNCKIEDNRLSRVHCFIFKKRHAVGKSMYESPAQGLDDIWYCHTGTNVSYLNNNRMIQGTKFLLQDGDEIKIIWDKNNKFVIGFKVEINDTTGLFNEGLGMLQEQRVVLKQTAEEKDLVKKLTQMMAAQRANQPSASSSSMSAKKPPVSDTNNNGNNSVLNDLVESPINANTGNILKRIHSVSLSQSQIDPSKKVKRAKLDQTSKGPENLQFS
UniProt P00546: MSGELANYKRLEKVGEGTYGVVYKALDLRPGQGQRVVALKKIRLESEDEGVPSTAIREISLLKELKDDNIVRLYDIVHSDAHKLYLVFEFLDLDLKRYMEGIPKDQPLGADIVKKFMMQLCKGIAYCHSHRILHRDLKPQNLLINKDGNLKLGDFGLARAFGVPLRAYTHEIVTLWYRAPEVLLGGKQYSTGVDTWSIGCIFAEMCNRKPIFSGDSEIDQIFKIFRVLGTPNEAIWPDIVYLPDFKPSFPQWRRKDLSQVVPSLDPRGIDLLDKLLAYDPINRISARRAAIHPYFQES

[2] = molecular target: T1, Rad9-9MYC (S. cerevisiae); assay: co-IP; Rad9-9MYC immunoprecipitated (anti-MYC) from bleocin-treated nocodazole-arrested cells; beads washed and incubated with ATP, ATP-gammaS or no nucleotide; beads and elution blotted
Clb3 (S. cerevisiae) = molecular target: T2, Clb3 (S. cerevisiae) (UniProt P24870); assay: co-purification of kinase complexes; four cyclin-Cdc28 complexes purified from yeast as in ref. 55; silver-stained gel (Figure S2A)
T2 sequence: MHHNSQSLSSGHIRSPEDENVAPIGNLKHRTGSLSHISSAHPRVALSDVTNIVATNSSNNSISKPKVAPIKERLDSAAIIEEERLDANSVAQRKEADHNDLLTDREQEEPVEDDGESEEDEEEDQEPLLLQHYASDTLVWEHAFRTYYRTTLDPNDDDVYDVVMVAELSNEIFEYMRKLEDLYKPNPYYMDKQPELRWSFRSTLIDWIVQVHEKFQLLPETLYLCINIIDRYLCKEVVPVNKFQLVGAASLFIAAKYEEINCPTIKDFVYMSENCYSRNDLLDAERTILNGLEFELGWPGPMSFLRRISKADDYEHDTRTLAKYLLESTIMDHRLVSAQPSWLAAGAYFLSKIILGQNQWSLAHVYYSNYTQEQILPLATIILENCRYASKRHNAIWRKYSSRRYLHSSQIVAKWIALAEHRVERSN

Clb2 (S. cerevisiae) = molecular target: T3, Clb2 (S. cerevisiae) (UniProt P24869); assay: as above
T3 sequence: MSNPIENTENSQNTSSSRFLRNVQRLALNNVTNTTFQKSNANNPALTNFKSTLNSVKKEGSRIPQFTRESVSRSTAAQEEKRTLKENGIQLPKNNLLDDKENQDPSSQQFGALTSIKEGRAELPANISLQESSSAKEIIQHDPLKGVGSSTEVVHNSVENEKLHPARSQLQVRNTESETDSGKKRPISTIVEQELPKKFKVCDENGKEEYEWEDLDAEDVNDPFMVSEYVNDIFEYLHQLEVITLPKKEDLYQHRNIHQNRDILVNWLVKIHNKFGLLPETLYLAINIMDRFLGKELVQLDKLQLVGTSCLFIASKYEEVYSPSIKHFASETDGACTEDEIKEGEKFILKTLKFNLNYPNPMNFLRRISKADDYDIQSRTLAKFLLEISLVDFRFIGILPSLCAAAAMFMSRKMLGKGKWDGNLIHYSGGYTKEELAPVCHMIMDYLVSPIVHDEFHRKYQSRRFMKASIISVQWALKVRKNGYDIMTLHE

Cln2 (S. cerevisiae) = molecular target: T4, Cln2 (S. cerevisiae) (UniProt P20438); assay: as above
T4 sequence: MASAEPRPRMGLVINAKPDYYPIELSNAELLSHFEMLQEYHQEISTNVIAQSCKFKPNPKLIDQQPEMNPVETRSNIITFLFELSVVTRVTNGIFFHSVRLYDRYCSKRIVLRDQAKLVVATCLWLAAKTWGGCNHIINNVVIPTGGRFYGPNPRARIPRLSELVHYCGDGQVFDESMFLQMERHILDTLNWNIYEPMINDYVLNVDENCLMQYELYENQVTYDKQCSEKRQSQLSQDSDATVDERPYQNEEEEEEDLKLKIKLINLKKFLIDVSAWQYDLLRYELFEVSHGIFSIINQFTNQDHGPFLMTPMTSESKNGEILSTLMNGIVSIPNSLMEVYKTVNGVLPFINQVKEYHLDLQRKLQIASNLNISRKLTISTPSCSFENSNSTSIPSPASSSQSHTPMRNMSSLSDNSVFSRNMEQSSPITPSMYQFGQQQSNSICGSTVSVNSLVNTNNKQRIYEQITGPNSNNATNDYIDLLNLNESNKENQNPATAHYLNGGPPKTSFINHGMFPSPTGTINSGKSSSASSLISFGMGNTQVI

Clb5 (S. cerevisiae) = molecular target: T5, Clb5 (S. cerevisiae) (UniProt P30283); assay: as above
T5 sequence: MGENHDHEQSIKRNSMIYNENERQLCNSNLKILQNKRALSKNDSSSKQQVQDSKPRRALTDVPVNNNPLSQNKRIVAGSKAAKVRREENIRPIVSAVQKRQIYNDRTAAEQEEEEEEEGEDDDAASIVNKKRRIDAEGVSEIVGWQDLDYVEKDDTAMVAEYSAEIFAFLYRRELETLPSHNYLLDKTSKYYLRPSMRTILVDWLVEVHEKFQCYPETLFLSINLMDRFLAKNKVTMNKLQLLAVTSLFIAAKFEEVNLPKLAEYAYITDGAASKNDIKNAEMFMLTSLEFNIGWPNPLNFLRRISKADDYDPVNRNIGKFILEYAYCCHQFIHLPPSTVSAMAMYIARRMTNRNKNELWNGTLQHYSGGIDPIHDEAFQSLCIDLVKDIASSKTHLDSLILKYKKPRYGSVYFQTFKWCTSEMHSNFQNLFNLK

[3] = molecular target: T6, Chk1-3FLAG (S. cerevisiae) (UniProt P38147); assay: co-IP; anti-FLAG (Chk1-3FLAG) or anti-MYC (Dpb11-13MYC) IP from 1 ml clarified crude extract (10 mg/ml) of nocodazole-arrested wild type or rad9^CDK1-9A cells, mock or 20 ug/ml bleocin for 45 min; IgG mock IP as control; western blot
T6 sequence: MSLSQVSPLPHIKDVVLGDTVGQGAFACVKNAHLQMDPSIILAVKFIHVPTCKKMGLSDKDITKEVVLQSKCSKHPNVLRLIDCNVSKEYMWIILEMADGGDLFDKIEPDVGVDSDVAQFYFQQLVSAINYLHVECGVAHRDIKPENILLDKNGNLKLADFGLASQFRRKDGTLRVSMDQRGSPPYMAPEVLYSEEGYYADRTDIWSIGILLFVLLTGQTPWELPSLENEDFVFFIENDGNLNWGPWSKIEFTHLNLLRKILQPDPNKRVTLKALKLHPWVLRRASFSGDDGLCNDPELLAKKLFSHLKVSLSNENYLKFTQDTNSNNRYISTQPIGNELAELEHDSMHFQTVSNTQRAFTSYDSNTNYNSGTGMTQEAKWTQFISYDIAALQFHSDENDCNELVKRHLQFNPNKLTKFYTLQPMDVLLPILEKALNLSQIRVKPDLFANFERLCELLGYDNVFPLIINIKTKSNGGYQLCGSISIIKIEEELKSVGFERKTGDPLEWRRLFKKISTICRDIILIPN

Molecule: Rad53 (endogenous) (from UniProt P22216 1-821)
- binding [1]: binds
- binding [2]: binds

Molecule: Cdc28 (from UniProt P00546 1-298) (enzyme)
- binding (Clb3 (S. cerevisiae)): binds
- binding (Clb2 (S. cerevisiae)): binds
- binding (Cln2 (S. cerevisiae)): binds
- binding (Clb5 (S. cerevisiae)): binds

B1: Dpb11-13MYC (protein, UniProt P47027 1-764)
chain: MKPFQGITFCPTAINNEILAKKISKKIIKLGGIFSKDLTRQVNVLVVGSTTNTNKFKFAVKHRFDIIFIDIQAIDDIYQLWLSGENILPDSNTATMTGSTYEMLKILYRRFSFKYLHNFNIFIGRITDTNITSIDSLVRSIKKLGCSSYNYQNFVIKDTSSHNDDDDQGQNGQISIFVTDTLLGARVNAAIEQNIPIVHFKWILDCQKRSALLPYDPYYLLPNIKDLPYDSIGSNSCDCWDKINTTFPTNIDAQSSLQRQQSSSTLTPSLPKTSSLLNKFKPKGEKIWDKAMSLQQHSKTNFSVLGQSPLSINNKQEDLSDNSTLIFKNCAFIIHHIFPGNHRSILTKIVVQNGGKIETSYLSGIYDHSYYIIPSNKALDSFNDLPEIIDDNDGIVTEFFIERCLYYQKLLHPIDLWSKPFLSTIEFQVSSSSKLLHHEFSSSPFLNVTITGFSGVELLHLTKVLNLLKPMGINYVEYLNKSTDILLINLAALPSIPKTHPLWSNEFSDLFTQFCINNNNDDPGDNNRKDFQNNSILRNSMKRKIEYIKKFHSIPVVTPAFIFKLLSAASGENNEIFLNNIKWCIICPRGHKDDFKCKIKKPYYTSISSEKKYQNNDPKIDKTILLKRNNSSLSEHSMKDTKNELLQKIRETDSGRKKRSVSSSIMDVSSERQMPDTKRIKLESLPKNFVPKQIKRTTSWGTIMSENVPTEQPTAISNPEEIPRTEEVSHTQVTYGSIQDKKRTASLEKPMRRQTRNQTKELDS
- binding [3]: no binding

— publication PMC3616908
